These are yes or no findings as the source states them, for the method shown.
Columns and labels:
[1] = molecular target: Chrysochloris asiatica Trx1 (CaTrx1) (Chrysochloris asiatica); experiment: ELISA, plate coated with 10ug TRX1(Asiatica)-N-His, anti-mouse HRP (Example 14) [panel B]
[2] = molecular target: Chrysochloris asiatica Trx1 (CaTrx1) (Chrysochloris asiatica); experiment: ELISA on coated antigen

binding [1]: no binding (tested: 100 nM)
B1: monoclonal antibody B264 (antibody, mouse IgG1, kappa, V domains shown)
VH: QVQLQQSGAELARPGASVKMSCKASGYTFTSYTMHWVKQRPGQGLEWIGYINPTSDYTNYNQKFKDKATLTADKSSSTAYMQLSSLTSEDSAVYFCASEGGFLYYFDYWGQGTTLTVSS
VL: DVLMTQTPLSLPVSLGDQASISCRSSQSIVHSNGNTYLEWYLQKPGQSPKLLIYKVSNRFSGVPDRFSGSGSGTDFTLKISRVEAEDLGVYYCFQGSHVPYTFGGGTKLEIKR
binding [2]: no binding (tested: 10 µg of CaTrx1 coated)

— US20240192215A1
